Measurements published in PMC4081076.
Results are given in words; binding and its absence hold for the method and conditions named. Binding seen in cells or lysates may run through a third protein. Some binding calls cover weakened binding; strength is not graded here. For some of these results: Where a sequence is shown, tags or fusion partners need not be part of it.

The chains behind the UniProt entries cited, without tags or fusion partners. Where a name states a change or a piece, a line headed by the entry shows the natural chain unless it says otherwise. A line that says so, or that is headed by a name, gives the form on record, which may keep a tag or linker.
UniProt P40235: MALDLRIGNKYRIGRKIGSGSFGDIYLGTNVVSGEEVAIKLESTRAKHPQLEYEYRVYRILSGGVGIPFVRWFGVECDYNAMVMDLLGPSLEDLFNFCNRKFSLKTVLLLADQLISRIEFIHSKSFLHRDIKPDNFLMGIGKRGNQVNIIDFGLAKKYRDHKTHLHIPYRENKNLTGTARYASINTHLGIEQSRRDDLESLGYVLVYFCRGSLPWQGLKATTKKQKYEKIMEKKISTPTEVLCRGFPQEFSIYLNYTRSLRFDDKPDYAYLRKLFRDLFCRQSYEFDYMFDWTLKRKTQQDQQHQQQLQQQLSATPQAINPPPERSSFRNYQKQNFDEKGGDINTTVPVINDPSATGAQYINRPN
UniProt P04551: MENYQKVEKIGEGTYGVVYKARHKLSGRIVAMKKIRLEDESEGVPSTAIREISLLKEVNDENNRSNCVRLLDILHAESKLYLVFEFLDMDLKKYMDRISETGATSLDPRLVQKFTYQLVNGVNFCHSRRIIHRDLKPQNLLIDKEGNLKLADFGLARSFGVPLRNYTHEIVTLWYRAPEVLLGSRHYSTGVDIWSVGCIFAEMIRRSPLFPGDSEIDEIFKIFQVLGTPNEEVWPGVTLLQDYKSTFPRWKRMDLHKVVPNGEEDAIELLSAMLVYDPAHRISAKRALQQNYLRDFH
Cdc2.1w kinase (P04551, form named): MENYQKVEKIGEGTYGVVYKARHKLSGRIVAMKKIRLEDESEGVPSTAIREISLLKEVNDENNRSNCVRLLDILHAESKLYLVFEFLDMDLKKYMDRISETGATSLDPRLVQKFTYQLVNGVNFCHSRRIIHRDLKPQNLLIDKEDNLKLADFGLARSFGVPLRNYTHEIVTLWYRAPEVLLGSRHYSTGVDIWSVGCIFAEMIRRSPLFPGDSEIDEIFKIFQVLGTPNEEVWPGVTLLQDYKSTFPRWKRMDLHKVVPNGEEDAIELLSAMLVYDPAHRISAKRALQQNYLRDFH

B1: Ku70-GFP-HA3 (protein, UniProt O94395 1-607)
chain: MENDEQIDETENFAIGKYAILFVIEVSPSMLDPVDEFTPSSLQMALICAYQLAAQRVITNPSDIMGVLLYGTESSTGRFANQMMLLDIDPPDAERIKSLQSFEKDFQFSKEKFKPCSCQVSLSSVLYHCSVIFTTKAENFEKRLFLITDNDHPAWDATERDIILQRAKDLRDLDIQVHPVFLDPPTHSFRINIFYSDFLYIVYGRQDVSNLVNRGQAQLQHMLNMITALQKPKRAHFHLKMDLGNDVRIGVEAFILLKRLESAKTNWVYAKGERFAVAVPQSKQVSFATKKELKKDEIRRSYSYGGSSVVFGSDELNKVRSFEPPTLRIIGFRDFSTLKPWHCLKPAVFLRPKDDEIIGSGAVFSAIHKKLLASNKIGIAWFVSRPNANPCFVAMLATPGSIHIRDDFELPLGIFLVQLPTADDIRSLPPINPNPISMPSNLIETMQRILRGMELRSYQPGKYNNPSLQWHYKVLQALALDEEIPTDFVDNTLPKYKAIQKRVGEYMGDVNNIVAEYRNDISDKNGIKEEEEDQGPIVKKARIEKSGKPIFAEDDRLKQLYIEGVLDKEIKALKVSQLKDILRDRGLRVSGKKADLLDNLTNYVKKL
B2: Ku80-HA3 (protein, UniProt Q9HGM8 1-695)
chain: MSDKECTVFVLDLGKDMGTCHHGRSHSDLEWTLSYFHDELSHKFLANRKTDVVGIVGYKCDDTKNDLAEQEAYWNISVLYPIQTALFSKLQSVSQTLKPSNTMQGDLISAIVVSFDLMARHCKKNKWKKKMIVLTAARGIIDFSDYIGIAEQLLQHDVFLGVYGVDFDQEDINYSEPLKESQKKENEVRIQEFVESCHGQYCTFQQIYNNIGKPWVRKVRPVAIFRGTFSIGNRDSKDTSISIQVERYPRTRLTKPPTSSAFYENDMSKNYECLNIENSNVENKSMESDAVSTVRSYMVRDPKTNDSFEVKREDLESGYSYGRTIVPISRSDEDVLALDTIPGYEILGFIPKSSLPIYYTISDTNIIVPKDDFESKLNFSAFVQSLEREHRYALARFVSKDKGVPVLLVLMPYVEFKRHYLVDIQLPFAEDVRPYSFSEFEKLSNEEDMRQIDFAVSNYIDNMDLDSSDCGFNPPFEPENTFSMIPHRLQQAISYYANSPEGDLPQPNIYLTRYTNPPKSLLDNCILDLKLIKEKLTVNVPVKPKYSSQETAFDTGAPISEEQIEELLNSGLDEQEGEKLLVLHVSEKDPVGTFTEVLKNPFGLEDALTEMEKVIKNLIDKSKYDLALQSLQSLRLHSILEDEVERFNEYLTRLKKDVMQNNKPKENELINKIRSSGLDIILHDELTRHDNFNNI
B3: Srs2-Myc13 (enzyme, UniProt Q10213 1-887)
chain: METKSSYLKFLNEEQRISVQSPHKYTQILAGPGSGKTRVLTARVAYLLQKNHIAAEDLIIATFTNKAANEIKLRIEAILGNSEASKLISGTFHSIAYKYLVKYGKHIGLSSNWLIADRNDTQAIMKRLLDSLKKAKNPIASGIRGQELTPQNALNRITKLKSNGLLVKPGMDQLSLINGLEEPPKELQSHQSVELYRLYQTSLWKNNLADFDDLLLNFILLLQKQPDCVRNIKHILIDEFQDTSKIQYFLVKLLALQNSDITIVGDPDQSIYGFRSAEIRNLNQMSEDFEGTQVLHLERNYRSAKPILELALSIISQDKSRPKKGLKSNHISSLKPHYRLFETNNKESYWIAREIKRIVGSCPELIFYNDIAILVRSSSLTRSLEHALSELGVPYRMVGVNKFFDREEIRDLIAYLRVLANKDSTSLIRVINVPPRNIGKTKIDRIIFESERRGLTFWQTLNEVKNENILLSQRNDKSFLKSLKSFLCSISKLENRYLSNGHSATLSDLLLGILSEIKYYEYLVRKNKETVEEKWENVMELVQQSDNISCIFYELDYKISTIVLLQNFLTQIALVNEEQKEGESQKVTISTLHAAKGLEWPVVFLPCLCENIIPHSRSDDLDEERRLLYVGATRAQALLYLSSFKSVTGMFADMQNSDNVQDVSPFLKGEEMKRWVMESEIVFNEKIASEIGTILGRKSYGKITNLSGIGSNANHNGTKFENLGFQCCRVLAEAELKKRERVKSVNDYNKDETNFRKHNAKRSKTDIRSWFEKKQPIDSDVEISEPSRSASIMVANKDLNDRSFETVNRIVSTRASTTNASFMSSVRQNLGRGPSTKDQVINRTLREGHQDVVQHTDLNQSNTKVASARPAGSRKRLGVRLRVSRML
B4: Chk1-HA3 (enzyme, UniProt P34208 1-496)
chain: MAQKLDNFPYHIGREIGTGAFASVRLCYDDNAKIYAVKFVNKKHATSCMNAGVWARRMASEIQLHKLCNGHKNIIHFYNTAENPQWRWVVLEFAQGGDLFDKIEPDVGIDEDVAQFYFAQLMEGISFMHSKGVAHRDLKPENILLDYNGNLKISDFGFASLFSYKGKSRLLNSPVGSPPYAAPEITQQYDGSKVDVWSCGIILFALLLGNTPWDEAISNTGDYLLYKKQCERPSYHPWNLLSPGAYSIITGMLRSDPFKRYSVKHVVQHPWLTSSTPFRTKNGNCADPVALASRLMLKLRIDLDKPRLASSRASQNDSGFSMTQPAFKKNDQKELDRVEVYGALSQPVQLNKNIDVTEILEKDPSLSQFCENEGFIKRLAKKAKNFYEICPPERLTRFYSRASRETIIDHLYDSLRLLAISVTMKYVRNQTILYVNLHDKRKCLLQGVIELTNLGHNLELINFIKRNGDPLEWRKFFKNVVSSIGKPIVLTDVSQN

Target: Hhp1-GFP (S. pombe) (UniProt P40235)
Assay: co-IP; GFP-Trap: Hhp1-GFP captured on GFP-nAb agarose from soluble extracts (50 mM HEPES pH 8.0, 200 mM KoAC, 20 mM NaCl, 1 mM EDTA, 0.1% Nonidet) of wild-type cells untreated or treated with 40 uM CPT for 4 h, and of untreated cdc2.1w cells; blotted with anti-GFP and anti-Cdc2

binding, binds:
Cdc2 kinase (from UniProt P04551 1-297) (enzyme)
Cdc2.1w kinase (from UniProt P04551 1-297) (enzyme)

Target: Cdc2 kinase (S. pombe) (UniProt P04551)
Assay: co-IP; native protein extracts (150 ul) of untreated tagged S. pombe strains incubated over night with 5 ul anti-Cdc2 antibody or an unrelated IgG, harvested with 30 ul protein A/G beads, blotted with a tag-specific antibody

binding, binds:
Hhp1-HA3 (from UniProt P40235 1-365) (enzyme)
B1
B2
B3
B4
